# PubChem BioAssay AID504834 (National Center for Advancing Translational Sciences (NCATS), 2011)
# About 22,000 (6.9%) of roughly 320,000 compounds were called active. The shares of active, inactive and inconclusive entries below differ from those in the screen. Calls come from the whole dose curve; as a rule, active = well fitted inhibition curve with a large enough effect; inconclusive = small, poorly fitted or top-dose-only effect, or another doubt; inactive = no such curve, though single readings can be large or run the other way. Potencies of inconclusive entries are doubtful fits and often do not repeat.
# Test: Primary qHTS for delayed death inhibitors of the malarial parasite plastid, 96 hour incubation
# Conditions: P. falciparum luciferase reporter growth; series mostly up to 28.7 µM
# In short: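 Two-generation exposure (96 h) targets delayed-death phenotype. Reporter parasites carrying integrated firefly luciferase, in red cells at 2% hematocrit and 0.05% parasitemia final, kept at 37 C, 5% CO2; luminescence loss indicates inhibition.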
# Potency is the fitted concentration of half-maximal effect.
row,Compound,Potency
1,Cc1nc(-c2cccc(Cl)c2)n[nH]1,inactive
2,O=[N+]([O-])c1ccc2[nH]ncc2c1,"inconclusive: 10.4 µM [inhibitor, single point]"
3,CC(=O)c1ccc(NC(=O)c2ccc(C)c(Br)c2)cc1,"inconclusive: 3.29 µM [inhibitor, full curve]"
4,COc1ccc(CCNC(=O)c2cc(C(=O)c3cc(Cl)ccc3O)cn(CCc3ccc(OC)cc3)c2=O)cc1,active: 0.522 µM
5,CCN(Cc1ccncc1)Cc1cn[nH]c1-c1cc(OC)c(OC)c(OC)c1,active: 9.28 µM
6,O=C(NCc1cccc(F)c1)c1ccc(N2C(=O)Cn3c(cc4sccc43)C2=O)cc1,inactive
7,CCCCn1c(C)cc2c(c1=O)[C@H]1O[C@](CCCCN3C(=O)c4ccccc4C3=O)(Cc3ccccc31)O2,"inconclusive: 0.0536 µM [inhibitor, full curve, poor fit]"
8,CN(C1CCS(=O)(=O)C1)S(=O)(=O)c1cccs1 (stereo not drawn),"inconclusive: 18.5 µM [inhibitor, partial curve, poor fit]"
9,O=C(/C=C/c1ccc2c(c1)OCO2)NCCSCc1cccc(Cl)c1,inactive
10,Cc1cc(Cl)c(S(=O)(=O)N2CCN(c3ccc(F)cc3)CC2)cc1OCC(N)=O,inactive
11,Cc1cc(C)c(OCC(=O)N(Cc2ccc(N(C)C)cc2)C2CCS(=O)(=O)C2)c(C)c1 (stereo not drawn),"inconclusive: 18.5 µM [inhibitor, single point]"
12,Cc1cc(Oc2nc3c(C)cccn3c(=O)c2/C=C(\C#N)S(=O)(=O)c2ccccc2)ccc1Cl,active: 2.33 µM
13,Cc1cc(C)nc(SCc2nc3ncccn3c2Br)n1,active: 4.15 µM
14,C[N+]1(C)C2CCC1CC(OC(=O)c1c[nH]c3ccccc13)C2 (stereo not drawn),active: 6.01 µM
15,O=c1[nH]c(O)c(/C=C2\C=Nc3ccccc32)[nH]1,inactive
16,OCC[C@H]1C[C@@H](O)[C@H](O)[C@@]2(Cc3ccccc3O2)O1,inactive
17,CCn1nnc2cc(C(=O)Nc3cc(S(C)(=O)=O)ccc3Cl)ccc21,"inconclusive: 18.5 µM [inhibitor, single point]"
18,COc1ccc(C(=O)NC(C)c2nc3ccccc3n2C)cc1OC (stereo not drawn),inactive
19,O=C(/C=C/c1ccccc1)N1CCC(Cc2ccccc2)CC1,active: 8.28 µM
20,CC(=O)c1ccc(N2CCN(C(=O)C3CCN(S(=O)(=O)c4ccc(F)cc4)CC3)CC2)cc1,"inconclusive: 1.65 µM [inhibitor, full curve]"
21,CC1CC(=S)Nc2ccccc2N1Cc1ccccc1 (stereo not drawn),"inconclusive: 18.5 µM [inhibitor, single point]"
22,O=S(=O)(Nc1ccc(O)c(Sc2nc3ccccc3s2)c1)c1cccc2ccccc12,"inconclusive: 11.7 µM [inhibitor, partial curve, poor fit]"
23,COc1ccc2cc(C(=O)C3CCCN(Cc4cnc(C)s4)C3)ccc2c1 (stereo not drawn),"inconclusive: 13.1 µM [inhibitor, single point]"
24,CCOC(=O)c1cc(S(=O)(=O)N2CCN(C3CCCCC3)CC2)cn1C,inactive
25,Cc1ccc(C(=O)N/C(=C\c2cn(S(=O)(=O)N(C)C)c3ccccc23)C(=O)N2CCCC2)cc1,inactive

row,Compound,Potency
1,CCc1nnc(NS(=O)(=O)c2ccc(NS(=O)(=O)c3ccc(NC(C)=O)cc3)cc2)s1,inactive
2,COc1ccc(S(=O)(=O)Oc2ccc3ccccc3c2)cc1,"inconclusive: 0.415 µM [inhibitor, full curve, poor fit]"
3,NC1=Nc2ccccc2Oc2ccccc21,"inconclusive: 13.1 µM [inhibitor, single point]"
4,CCOc1cccc(OCCCOc2cccc3cccnc23)c1,"inconclusive: 0.0033 µM [inhibitor, full curve, poor fit]"
5,CC(=O)NC(c1cccs1)c1cc(Cl)c2ccccc2c1O (stereo not drawn),"inconclusive: 16.5 µM [inhibitor, single point]"
6,Cc1ccc(CN2CC(C(=O)N3CCN(S(=O)(=O)c4c(F)cccc4F)CC3)CC2=O)cc1 (stereo not drawn),"inconclusive: 11.7 µM [inhibitor, single point]"
7,Cc1nc2ccc(NC(=S)NCc3ccccc3)cc2nc1C,inactive
8,COc1ccc(-c2cc(C(F)(F)F)nc(SCC(=O)NCc3cccs3)n2)cc1,"inconclusive: 10.4 µM [inhibitor, partial curve, poor fit]"
9,COc1ccc(-n2c(COc3ccc(C)cc3)n[nH]c2=S)cc1,active: 0.465 µM
10,CCOc1ccc(N(CC(=O)NCCc2ccccc2)C(=O)c2csnn2)cc1,"inconclusive: 11.7 µM [inhibitor, single point]"
11,CCOC(=O)c1c(CN(C)C)oc2cc(CN(C)C)c(O)c(CSc3ccccc3)c12,active: 2.33 µM
12,Cc1cc(C)cc(N(C(=O)c2ccc3c(c2)OCO3)C2C=CS(=O)(=O)C2)c1 (stereo not drawn),"inconclusive: 3.29 µM [inhibitor, full curve]"
13,O=C(CCSc1ccc(Cl)cc1)N1CCN(c2ncccn2)CC1,inactive
14,COCCNC(=O)CSc1cc(=O)n(C)c2cc(Cl)ccc12,"inconclusive: 2.08 µM [inhibitor, full curve]"
15,O=C(CSCC(=O)NC1CC1)Nc1ccc2ccccc2c1,"inconclusive: 18.5 µM [inhibitor, single point]"
16,O=C(CSc1nnc2c(Cl)cc(Cl)cn12)N1CCN(S(=O)(=O)c2ccccc2)CC1,"inconclusive: 10.4 µM [inhibitor, single point]"
17,Cc1ccc(S(=O)(=O)c2nc(S(C)(=O)=O)sc2N2CCCC2)cc1,"inconclusive: 18.5 µM [inhibitor, single point]"
18,COc1ccccc1OCCOCCOc1ccc(C)cc1[N+](=O)[O-],"inconclusive: 18.5 µM [inhibitor, partial curve, poor fit]"
19,COc1ccc(C(=O)Nc2ccccc2-c2nnn(CC(=O)N3CCOCC3)n2)cc1,inactive
20,Cc1ccccc1SCC(=O)NCCCn1ccnc1,"inconclusive: 18.5 µM [inhibitor, single point]"
21,Cc1cc(NC(=O)c2cn(C3CCCCC3)c(=O)c3c2c2ccccc2n3C)no1,"inconclusive: 0.465 µM [inhibitor, partial curve, poor fit]"
22,NS(=O)(=O)c1ccc(NC(=S)NCc2ccc(Cl)cc2)cc1,inactive
23,CC1(C)CC(=O)C(Sc2ccc(Br)cc2)=C(O)C1,"inconclusive: 0.104 µM [inhibitor, full curve, poor fit]"
24,Cc1cccc2nc(-c3cccc(NC(=O)c4ccc(Cl)cc4)c3)cn12,inactive
25,CN(CC(=O)Nc1ccc(Cl)cc1)C(=O)CCc1c[nH]c2ccccc12,inactive

row,Compound,Potency
1,CCC1=NN(C(=O)c2ccc(Cl)cc2)C(O)(c2ccccc2)C1 (stereo not drawn),active: 3.29 µM
2,CCn1c(C)nc2cc(C(=O)NNC(=O)Nc3ccc(Cl)c(Cl)c3)ccc21,inactive
3,O=c1c2ccccc2oc2nc(C3CCCCC3)n(Cc3ccco3)c(=O)c12,"inconclusive: 10.4 µM [inhibitor, partial curve, poor fit]"
4,O=C(/C=C/c1cccs1)N1CCC2(CC1)Oc1ccc(Cl)cc1C(=O)C21CC(c2cccnc2)=NO1 (stereo not drawn),active: 11.7 µM
5,O=C(CSc1nc2nccnc2c(=O)n1Cc1cccs1)Nc1ccccc1,"inconclusive: 11.7 µM [inhibitor, single point]"
6,COc1ccc(Nc2nc(N)c([N+](=O)[O-])c(NCc3ccccc3)n2)cc1,"inconclusive: 9.28 µM [inhibitor, single point]"
7,Cc1cc(C)n(-c2ccc(C(=O)OCC(=O)Nc3ccc(Cl)cc3[N+](=O)[O-])cc2)n1,inactive
8,CCC(=O)Nc1ccc(NC(=O)/C=C/c2ccc(Cl)cc2)cc1,active: 9.28 µM
9,CC(Cc1cccs1)NC(=O)c1cccs1 (stereo not drawn),inactive
10,COc1ccc(S(=O)(=O)N2CCCCC2)cc1NC(=O)CNc1ccccc1N1CCCC1=O,"inconclusive: 0.0037 µM [inhibitor, full curve, poor fit]"
11,O=C(/C=C/c1cccc(Br)c1)NCC1CCCCC1,"inconclusive: 18.5 µM [inhibitor, single point]"
12,Cc1cc(C)n2nc(SC(C)C(=O)NCc3ccco3)nc2n1 (stereo not drawn),"inconclusive: 18.5 µM [inhibitor, single point]"
13,Cc1cc(Nc2cc(C)on2)n2ncnc2n1,"inconclusive: 18.5 µM [inhibitor, single point]"
14,O=C1/C(=C/c2cccs2)NC(=S)N1C1CC1,inactive
15,Cc1ccc(/C=N\NC(=O)C2CN(S(=O)(=O)c3ccccc3)CCN2S(=O)(=O)c2ccccc2)cc1 (stereo not drawn),"inconclusive: 10.4 µM [inhibitor, single point]"
16,CCCN1C(=O)/C(=C/c2ccco2)SC1=Nc1ccc(OC)cc1,"inconclusive: 9.28 µM [inhibitor, single point]"
17,O=C(Nc1ccc(Cl)cc1)OCc1cc(-c2ccccc2Cl)on1,inactive
18,CC1CCN(C(=O)c2cc3nc(C4CC4)cc(C(F)(F)F)n3n2)CC1,inactive
19,COCCNC(=O)c1ccc2c(c1)nc(C)n2-c1cccc(F)c1,"inconclusive: 2.33 µM [inhibitor, partial curve, poor fit]"
20,CCCCCCCCCCOC(=O)C[N+](C)(C)C/C=C(/C)Cl,active: 2.33 µM
21,Cn1c(=O)n(CCc2ccccc2)c(=O)c2c1nc1n2CCCN1c1ccccc1,"inconclusive: 18.5 µM [inhibitor, single point]"
22,Cc1cccn2c(/C=N/OCc3cccc(F)c3)c(-c3ccc(Cl)cc3)nc12,"inconclusive: 0.928 µM [inhibitor, partial curve, poor fit]"
23,CCC(=O)OC1(c2ccccc2)CCN(C)CC1C (stereo not drawn),"inconclusive: 10.4 µM [inhibitor, partial curve, poor fit]"

# A second format for 3 compounds above.
row	Compound	Potency
6	O=C(NCc1cccc(F)c1)c1ccc(N2C(=O)Cn3c(cc4sccc43)C2=O)cc1	inactive
24	CCOC(=O)c1cc(S(=O)(=O)N2CCN(C3CCCCC3)CC2)cn1C	inactive
2	CCn1c(C)nc2cc(C(=O)NNC(=O)Nc3ccc(Cl)c(Cl)c3)ccc21	inactive

# Exported tab-delimited: entries from further up
row	Compound	Potency
21	Cc1cc(NC(=O)c2cn(C3CCCCC3)c(=O)c3c2c2ccccc2n3C)no1	inconclusive: 0.465 µM [inhibitor, partial curve, poor fit]
22	NS(=O)(=O)c1ccc(NC(=S)NCc2ccc(Cl)cc2)cc1	inactive
23	CC1(C)CC(=O)C(Sc2ccc(Br)cc2)=C(O)C1	inconclusive: 0.104 µM [inhibitor, full curve, poor fit]
